What all share (experiment): co-IP
Assay [1] has as its target Bcl-2 (human (endogenous in SH-SY5Y)) (UniProt P10415).
The target in assay [2] is TOMM20 (human (endogenous in SH-SY5Y)) (UniProt Q15388).
Assay [3] deals with T1, protein tyrosine phosphatase interacting protein 51 (human (endogenous in SH-SY5Y)) (UniProt Q96TC7).
T1 sequence: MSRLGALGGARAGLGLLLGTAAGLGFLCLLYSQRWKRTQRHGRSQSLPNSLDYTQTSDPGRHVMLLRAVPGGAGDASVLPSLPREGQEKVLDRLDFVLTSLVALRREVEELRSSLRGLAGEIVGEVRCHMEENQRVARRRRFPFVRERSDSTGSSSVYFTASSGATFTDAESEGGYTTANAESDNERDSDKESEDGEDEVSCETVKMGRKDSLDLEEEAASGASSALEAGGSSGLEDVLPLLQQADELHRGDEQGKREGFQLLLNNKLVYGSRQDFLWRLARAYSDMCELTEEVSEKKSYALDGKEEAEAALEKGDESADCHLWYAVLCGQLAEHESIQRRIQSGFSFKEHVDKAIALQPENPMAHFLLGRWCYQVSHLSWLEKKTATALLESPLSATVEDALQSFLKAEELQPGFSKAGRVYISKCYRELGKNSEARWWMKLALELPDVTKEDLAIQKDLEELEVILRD

Protein sequences, listed by entry. Tags and fused reporters are not part of them. Residues count along the entry.
UniProt P10415: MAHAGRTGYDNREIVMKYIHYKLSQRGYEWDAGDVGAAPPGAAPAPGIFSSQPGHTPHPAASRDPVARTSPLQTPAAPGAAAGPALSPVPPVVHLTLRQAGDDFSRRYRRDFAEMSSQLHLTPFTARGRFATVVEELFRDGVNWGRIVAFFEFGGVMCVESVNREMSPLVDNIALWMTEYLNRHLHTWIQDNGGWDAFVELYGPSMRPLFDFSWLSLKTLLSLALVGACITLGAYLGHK
UniProt Q15388: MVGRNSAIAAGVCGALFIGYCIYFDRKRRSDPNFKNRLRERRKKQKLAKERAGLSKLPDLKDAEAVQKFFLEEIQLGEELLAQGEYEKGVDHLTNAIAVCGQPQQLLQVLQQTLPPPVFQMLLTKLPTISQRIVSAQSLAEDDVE
UniProt P05067, residues 672-770: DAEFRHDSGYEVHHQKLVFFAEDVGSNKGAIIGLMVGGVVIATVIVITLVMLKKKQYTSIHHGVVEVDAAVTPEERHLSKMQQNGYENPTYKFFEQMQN
UniProt P04150: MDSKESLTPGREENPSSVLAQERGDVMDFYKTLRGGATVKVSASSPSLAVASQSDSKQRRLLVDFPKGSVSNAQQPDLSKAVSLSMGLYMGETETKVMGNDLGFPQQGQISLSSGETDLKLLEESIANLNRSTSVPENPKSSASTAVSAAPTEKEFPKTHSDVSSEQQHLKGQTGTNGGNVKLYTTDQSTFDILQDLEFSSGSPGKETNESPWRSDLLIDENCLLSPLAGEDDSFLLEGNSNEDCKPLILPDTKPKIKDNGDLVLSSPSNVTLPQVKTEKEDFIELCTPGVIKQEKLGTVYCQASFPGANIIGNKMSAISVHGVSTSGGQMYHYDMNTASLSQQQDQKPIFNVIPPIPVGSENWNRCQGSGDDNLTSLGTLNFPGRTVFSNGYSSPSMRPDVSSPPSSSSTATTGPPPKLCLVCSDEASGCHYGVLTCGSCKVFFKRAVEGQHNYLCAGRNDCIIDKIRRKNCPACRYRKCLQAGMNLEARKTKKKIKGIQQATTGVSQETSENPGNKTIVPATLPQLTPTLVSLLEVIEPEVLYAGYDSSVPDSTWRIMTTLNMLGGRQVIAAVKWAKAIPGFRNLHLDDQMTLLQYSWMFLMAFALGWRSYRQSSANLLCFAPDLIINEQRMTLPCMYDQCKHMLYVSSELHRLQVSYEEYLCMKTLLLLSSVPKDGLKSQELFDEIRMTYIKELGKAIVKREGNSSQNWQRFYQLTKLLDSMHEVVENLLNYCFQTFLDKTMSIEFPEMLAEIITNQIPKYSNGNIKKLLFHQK
UniProt O95292: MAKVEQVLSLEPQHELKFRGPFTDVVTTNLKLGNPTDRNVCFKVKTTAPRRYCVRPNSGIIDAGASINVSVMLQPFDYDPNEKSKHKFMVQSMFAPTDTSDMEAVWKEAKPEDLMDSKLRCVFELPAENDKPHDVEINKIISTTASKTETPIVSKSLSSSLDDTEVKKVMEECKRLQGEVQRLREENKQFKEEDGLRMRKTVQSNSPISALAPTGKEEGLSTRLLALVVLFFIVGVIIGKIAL

For assay [4], the target named is C99 (human (endogenous in SH-SY5Y)) (UniProt P05067).

These are yes or no findings as the source states them, for the method shown. In cells and extracts the contact can be indirect. Some results given as binding are weak or reduced against the parent protein; the word gives no strength.

In the case of TOMM20 (from UniProt Q15388 1-145), the binding result in assay [1] was “binds”. “glucocorticoid receptor (from UniProt P04150 1-777)”: the binding entry in assay [1] and in assay [2] was “binds” in each case. As for “vesicle-associated protein B (from UniProt O95292 1-243)”, the binding result in assay [3] and in assay [4] was “binds” in each case.

Source of the values: article doi:10.1101/322610.
